Among the data in PubChem BioAssay AID1632 (University of Pittsburgh Molecular Library Screening Center, 2009) are inhibition values, retold here.

The structures appear in SMILES notation. The list shows a part of the results.

For the test, the system named is hexokinase 1 [Trypanosoma brucei]. As to the kind of experiment: T. brucei hexokinase 1 inhibitor potency, dose response, biochemical, IC50 (AID 1632). The conditions noted are these: recombinant TbHK1 enzyme assay, absorbance read-out, at 100 µM, stronger effect = higher value.

Broadly, the inhibition is the share of the control response that was lost under treatment.

On to `O=P(Nc1nccs1)(c1ccccc1)c1nc2ccccc2s1` (stereo unspecified), for which the inhibition was 86.7%.
